We go through 17 molecules from publication PMC8015000, “FYN and ABL Regulate the Interaction Networks of the DCBLD Receptor Family” (Molecular & Cellular Proteomics : MCP, 2020).

The chains behind the UniProt entries cited, without tags or fusion partners. Where a name states a change or a piece, a line headed by the entry shows the natural chain unless it says otherwise. Residues count along the entry.
UniProt P62258: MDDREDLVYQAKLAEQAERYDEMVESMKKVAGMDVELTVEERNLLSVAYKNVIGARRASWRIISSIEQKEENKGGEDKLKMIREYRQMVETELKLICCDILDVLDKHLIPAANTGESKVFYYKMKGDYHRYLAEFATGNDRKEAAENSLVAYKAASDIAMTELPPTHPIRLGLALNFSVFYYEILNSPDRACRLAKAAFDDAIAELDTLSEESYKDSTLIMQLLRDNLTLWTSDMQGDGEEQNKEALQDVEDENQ
UniProt P27824, residues 21-592: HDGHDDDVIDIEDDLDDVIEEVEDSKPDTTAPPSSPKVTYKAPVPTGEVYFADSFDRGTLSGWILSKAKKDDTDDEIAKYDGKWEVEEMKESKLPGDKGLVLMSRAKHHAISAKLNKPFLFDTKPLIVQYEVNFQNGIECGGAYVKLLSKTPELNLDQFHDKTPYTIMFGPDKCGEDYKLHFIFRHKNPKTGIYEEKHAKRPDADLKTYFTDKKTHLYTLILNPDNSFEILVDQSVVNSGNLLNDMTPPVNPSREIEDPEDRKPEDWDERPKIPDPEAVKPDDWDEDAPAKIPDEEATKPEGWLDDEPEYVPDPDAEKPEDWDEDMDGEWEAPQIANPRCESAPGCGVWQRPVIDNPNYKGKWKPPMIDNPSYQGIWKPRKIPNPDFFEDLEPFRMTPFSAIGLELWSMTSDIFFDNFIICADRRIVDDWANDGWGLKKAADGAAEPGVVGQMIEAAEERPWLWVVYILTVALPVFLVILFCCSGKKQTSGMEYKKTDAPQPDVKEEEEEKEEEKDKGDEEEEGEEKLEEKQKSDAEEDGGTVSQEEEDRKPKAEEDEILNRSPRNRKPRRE
UniProt O00507: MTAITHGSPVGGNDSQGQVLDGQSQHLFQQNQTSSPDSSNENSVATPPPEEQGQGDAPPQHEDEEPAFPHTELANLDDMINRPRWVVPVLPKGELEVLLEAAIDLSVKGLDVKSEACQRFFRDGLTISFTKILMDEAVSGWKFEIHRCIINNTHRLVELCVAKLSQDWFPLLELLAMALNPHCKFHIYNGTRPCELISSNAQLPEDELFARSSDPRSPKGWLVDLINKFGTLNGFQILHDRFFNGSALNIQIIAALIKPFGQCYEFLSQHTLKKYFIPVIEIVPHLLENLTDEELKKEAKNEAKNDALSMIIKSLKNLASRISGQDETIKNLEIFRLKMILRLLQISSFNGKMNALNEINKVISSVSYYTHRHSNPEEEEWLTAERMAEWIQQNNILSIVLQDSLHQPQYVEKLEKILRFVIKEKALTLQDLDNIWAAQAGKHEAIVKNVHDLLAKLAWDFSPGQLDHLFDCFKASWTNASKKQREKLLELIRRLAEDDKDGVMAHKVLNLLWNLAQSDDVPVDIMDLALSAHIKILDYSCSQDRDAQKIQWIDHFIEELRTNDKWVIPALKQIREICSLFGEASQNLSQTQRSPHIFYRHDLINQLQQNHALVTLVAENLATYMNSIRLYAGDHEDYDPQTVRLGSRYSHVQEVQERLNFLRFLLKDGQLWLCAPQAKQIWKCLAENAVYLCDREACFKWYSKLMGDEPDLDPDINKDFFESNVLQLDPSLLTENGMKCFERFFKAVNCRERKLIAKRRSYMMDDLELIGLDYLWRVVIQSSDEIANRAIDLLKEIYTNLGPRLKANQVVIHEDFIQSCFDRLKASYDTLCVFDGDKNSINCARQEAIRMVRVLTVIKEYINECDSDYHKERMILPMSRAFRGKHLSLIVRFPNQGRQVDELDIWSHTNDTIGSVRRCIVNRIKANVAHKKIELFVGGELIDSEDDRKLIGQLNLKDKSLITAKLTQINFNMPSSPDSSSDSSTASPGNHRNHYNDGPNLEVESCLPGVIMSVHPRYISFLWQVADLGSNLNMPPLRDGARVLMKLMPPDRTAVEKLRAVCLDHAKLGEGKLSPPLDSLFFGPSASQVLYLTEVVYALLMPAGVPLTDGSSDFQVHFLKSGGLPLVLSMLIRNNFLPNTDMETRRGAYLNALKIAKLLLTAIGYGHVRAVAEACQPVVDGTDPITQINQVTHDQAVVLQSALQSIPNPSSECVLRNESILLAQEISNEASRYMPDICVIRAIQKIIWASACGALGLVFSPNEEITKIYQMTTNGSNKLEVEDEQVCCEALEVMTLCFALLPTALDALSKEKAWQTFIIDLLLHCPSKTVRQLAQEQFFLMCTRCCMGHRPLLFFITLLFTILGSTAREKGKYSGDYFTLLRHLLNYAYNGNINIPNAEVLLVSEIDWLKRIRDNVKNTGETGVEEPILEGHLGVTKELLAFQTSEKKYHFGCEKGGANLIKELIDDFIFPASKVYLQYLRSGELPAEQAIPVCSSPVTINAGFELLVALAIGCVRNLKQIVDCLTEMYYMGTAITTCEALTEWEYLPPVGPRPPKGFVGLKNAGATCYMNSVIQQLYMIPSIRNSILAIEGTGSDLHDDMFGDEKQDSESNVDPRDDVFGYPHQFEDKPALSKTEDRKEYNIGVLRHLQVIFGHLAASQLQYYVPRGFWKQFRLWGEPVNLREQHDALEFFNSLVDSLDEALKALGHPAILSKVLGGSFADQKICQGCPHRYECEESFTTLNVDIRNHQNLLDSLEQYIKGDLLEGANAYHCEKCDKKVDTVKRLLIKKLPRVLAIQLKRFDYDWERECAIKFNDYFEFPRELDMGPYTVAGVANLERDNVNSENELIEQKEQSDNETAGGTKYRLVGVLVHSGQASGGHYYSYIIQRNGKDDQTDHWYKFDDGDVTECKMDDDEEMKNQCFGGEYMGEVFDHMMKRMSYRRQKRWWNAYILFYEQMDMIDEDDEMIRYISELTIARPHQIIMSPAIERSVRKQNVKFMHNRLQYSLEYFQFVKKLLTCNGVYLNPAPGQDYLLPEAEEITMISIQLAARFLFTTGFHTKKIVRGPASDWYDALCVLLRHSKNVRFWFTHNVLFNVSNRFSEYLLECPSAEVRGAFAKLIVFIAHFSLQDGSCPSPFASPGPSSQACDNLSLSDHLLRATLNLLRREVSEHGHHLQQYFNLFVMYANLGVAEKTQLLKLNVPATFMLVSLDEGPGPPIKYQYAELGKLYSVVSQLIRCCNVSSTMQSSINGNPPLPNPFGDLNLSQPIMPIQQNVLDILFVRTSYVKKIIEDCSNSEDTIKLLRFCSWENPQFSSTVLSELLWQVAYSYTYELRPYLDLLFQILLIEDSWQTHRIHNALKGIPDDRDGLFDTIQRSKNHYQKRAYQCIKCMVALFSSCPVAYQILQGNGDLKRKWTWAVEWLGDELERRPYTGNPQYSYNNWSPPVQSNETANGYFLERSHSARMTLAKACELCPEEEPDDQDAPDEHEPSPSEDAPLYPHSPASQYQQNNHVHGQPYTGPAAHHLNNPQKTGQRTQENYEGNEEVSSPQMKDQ
UniProt P46108: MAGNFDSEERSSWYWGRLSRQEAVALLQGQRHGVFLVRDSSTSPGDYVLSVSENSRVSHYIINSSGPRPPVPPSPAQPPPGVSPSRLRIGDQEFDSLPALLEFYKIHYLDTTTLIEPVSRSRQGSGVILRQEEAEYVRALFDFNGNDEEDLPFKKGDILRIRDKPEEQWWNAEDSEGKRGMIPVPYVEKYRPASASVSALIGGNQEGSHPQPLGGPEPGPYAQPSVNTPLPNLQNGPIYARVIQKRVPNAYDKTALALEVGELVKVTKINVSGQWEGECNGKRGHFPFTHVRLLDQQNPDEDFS
UniProt P06241: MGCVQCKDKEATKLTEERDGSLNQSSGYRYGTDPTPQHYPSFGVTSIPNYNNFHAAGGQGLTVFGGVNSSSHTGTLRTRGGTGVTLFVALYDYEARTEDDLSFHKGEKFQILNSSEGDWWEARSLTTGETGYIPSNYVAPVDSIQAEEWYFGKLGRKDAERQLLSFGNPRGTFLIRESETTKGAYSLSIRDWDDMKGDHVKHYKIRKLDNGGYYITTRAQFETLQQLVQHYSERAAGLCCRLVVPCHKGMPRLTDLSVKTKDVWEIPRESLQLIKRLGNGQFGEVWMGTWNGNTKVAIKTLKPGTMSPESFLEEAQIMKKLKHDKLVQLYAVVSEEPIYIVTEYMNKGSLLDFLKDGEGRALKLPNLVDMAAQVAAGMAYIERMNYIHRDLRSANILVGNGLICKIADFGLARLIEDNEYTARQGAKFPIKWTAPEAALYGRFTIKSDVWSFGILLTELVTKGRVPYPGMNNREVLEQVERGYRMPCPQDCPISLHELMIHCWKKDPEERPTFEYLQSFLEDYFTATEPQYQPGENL
UniProt P31946: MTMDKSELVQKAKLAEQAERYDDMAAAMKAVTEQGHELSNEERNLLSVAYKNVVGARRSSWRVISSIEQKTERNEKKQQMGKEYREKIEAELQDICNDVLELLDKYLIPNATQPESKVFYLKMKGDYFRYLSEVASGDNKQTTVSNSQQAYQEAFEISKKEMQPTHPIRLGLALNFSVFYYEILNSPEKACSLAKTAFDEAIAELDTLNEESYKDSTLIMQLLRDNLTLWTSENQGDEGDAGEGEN
UniProt P63104: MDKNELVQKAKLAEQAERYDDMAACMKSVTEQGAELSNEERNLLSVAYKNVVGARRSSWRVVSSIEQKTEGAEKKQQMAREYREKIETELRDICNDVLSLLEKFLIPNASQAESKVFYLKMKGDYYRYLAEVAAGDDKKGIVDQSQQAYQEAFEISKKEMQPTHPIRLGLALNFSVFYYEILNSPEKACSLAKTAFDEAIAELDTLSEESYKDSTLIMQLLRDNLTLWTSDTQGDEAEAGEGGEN
UniProt P46109: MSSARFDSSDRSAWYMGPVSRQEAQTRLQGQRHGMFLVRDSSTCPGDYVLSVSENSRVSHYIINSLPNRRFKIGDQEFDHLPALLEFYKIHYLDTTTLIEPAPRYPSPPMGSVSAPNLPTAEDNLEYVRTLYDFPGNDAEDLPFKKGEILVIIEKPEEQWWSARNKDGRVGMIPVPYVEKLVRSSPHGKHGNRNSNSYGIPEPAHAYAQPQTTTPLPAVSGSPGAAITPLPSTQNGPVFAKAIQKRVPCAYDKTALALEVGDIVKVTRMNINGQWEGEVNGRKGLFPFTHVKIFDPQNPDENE
UniProt Q13557: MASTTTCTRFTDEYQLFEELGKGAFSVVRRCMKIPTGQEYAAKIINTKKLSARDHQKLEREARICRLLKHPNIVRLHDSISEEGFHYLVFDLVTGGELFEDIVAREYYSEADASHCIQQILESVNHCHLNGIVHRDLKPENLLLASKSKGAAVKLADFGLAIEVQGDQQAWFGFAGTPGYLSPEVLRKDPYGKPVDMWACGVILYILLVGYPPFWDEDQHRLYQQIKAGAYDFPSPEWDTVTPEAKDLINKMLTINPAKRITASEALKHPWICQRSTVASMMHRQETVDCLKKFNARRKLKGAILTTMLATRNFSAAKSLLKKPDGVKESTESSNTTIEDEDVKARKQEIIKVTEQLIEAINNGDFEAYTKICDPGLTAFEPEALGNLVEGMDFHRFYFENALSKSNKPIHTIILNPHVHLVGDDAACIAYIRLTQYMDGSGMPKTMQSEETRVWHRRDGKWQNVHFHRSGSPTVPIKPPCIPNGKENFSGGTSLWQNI
UniProt Q13554: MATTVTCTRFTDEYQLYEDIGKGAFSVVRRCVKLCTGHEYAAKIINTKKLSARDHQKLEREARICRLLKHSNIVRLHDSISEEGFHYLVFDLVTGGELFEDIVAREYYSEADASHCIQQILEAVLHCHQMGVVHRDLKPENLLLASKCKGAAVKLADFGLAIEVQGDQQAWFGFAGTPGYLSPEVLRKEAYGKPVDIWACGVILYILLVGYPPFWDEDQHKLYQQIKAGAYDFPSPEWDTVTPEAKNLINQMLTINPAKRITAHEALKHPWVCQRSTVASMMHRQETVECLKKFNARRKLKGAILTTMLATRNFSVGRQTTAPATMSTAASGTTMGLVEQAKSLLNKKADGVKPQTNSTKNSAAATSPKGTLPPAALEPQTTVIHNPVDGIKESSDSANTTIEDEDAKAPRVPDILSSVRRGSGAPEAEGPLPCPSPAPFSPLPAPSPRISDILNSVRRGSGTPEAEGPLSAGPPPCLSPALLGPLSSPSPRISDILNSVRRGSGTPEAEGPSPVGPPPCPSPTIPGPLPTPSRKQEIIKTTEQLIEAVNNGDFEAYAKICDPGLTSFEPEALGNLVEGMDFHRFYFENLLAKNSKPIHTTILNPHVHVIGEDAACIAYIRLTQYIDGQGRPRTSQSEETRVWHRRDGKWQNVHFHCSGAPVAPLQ

In assay [1] the target is T1, DCBLD1-MYC-FLAG (human Discoidin, CUB, and LCCL domain-containing protein 1) (human) (UniProt Q8N8Z6).
T1 sequence: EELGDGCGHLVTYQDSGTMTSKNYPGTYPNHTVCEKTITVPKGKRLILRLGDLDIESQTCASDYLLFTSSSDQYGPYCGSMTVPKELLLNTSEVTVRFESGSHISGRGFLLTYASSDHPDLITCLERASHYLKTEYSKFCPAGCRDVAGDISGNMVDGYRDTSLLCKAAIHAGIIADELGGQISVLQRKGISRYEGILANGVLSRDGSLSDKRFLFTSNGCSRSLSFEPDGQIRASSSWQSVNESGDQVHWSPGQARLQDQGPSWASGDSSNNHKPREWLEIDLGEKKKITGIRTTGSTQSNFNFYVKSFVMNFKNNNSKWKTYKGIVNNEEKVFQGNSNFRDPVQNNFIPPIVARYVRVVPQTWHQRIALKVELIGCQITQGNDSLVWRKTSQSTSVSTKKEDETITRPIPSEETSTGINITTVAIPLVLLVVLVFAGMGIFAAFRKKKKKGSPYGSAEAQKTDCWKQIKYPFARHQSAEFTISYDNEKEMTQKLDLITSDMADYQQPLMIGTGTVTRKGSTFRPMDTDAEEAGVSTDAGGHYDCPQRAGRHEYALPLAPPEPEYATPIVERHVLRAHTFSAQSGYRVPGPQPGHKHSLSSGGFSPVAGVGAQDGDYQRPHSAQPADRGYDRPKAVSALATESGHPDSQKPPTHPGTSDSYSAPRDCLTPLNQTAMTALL
In words: affinity purification with mass spectrometry; SILAC; alpha-FLAG Affinity Gel immunoprecipitation of DCBLD1-FLAG or DCBLD2-FLAG from transfected HEK 293 lysates (BCLB, overnight, 4 C), expressed alone (light) or with ABL or FYN (heavy; FYN with DCBLD2 only); SDS-PAGE, tryptic digest, LC-MS/MS; three biological replicates; proteins found in mock, ABL-alone and FYN-alone controls removed.

For assay [2], the target named is T2, DCBLD2-FLAG-MYC (full-length human Discoidin, CUB, and LCCL domain-containing protein 2) (human) (UniProt Q96PD2).
T2 sequence: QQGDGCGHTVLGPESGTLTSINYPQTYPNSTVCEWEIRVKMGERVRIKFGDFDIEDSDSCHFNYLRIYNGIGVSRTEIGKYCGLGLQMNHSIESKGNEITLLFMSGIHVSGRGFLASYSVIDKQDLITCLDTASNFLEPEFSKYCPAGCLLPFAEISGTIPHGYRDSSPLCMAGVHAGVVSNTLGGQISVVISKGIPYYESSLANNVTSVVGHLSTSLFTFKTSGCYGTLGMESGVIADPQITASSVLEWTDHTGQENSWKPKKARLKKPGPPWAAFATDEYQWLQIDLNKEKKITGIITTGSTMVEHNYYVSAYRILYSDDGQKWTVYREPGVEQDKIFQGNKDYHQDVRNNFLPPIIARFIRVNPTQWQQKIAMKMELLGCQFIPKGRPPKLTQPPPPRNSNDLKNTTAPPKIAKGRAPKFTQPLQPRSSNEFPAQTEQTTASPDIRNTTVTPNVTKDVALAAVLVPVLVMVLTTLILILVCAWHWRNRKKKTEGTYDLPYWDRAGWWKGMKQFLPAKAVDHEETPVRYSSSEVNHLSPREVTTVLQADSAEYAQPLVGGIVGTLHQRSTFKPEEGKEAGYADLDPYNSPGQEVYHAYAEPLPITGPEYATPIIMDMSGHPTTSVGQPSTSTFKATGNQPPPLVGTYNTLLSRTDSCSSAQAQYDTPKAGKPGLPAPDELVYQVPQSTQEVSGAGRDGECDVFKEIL
Described as above.

The target in assay [3] is T2, DCBLD2-FLAG-MYC (full-length human Discoidin, CUB, and LCCL domain-containing protein 2) (human). Put plainly: affinity purification with mass spectrometry; FLAG-tagged DCBLD2 immunoprecipitated from HEK cells expressing DCBLD2 alone or with ABL, immune complexes washed three times with BCLB and incubated with adult zebrafish extracts overnight; SDS-PAGE, LC-MS/MS; peptides unique to zebrafish extracted; the resin also carries co-precipitated human proteins; only the target purified.

Assay [4] has the same target. In words: affinity purification with mass spectrometry; SILAC; alpha-FLAG Affinity Gel immunoprecipitation of DCBLD1-FLAG or DCBLD2-FLAG from transfected HEK 293 lysates (BCLB, overnight, 4 C), expressed alone (light) or with ABL or FYN (heavy; FYN with DCBLD2 only); SDS-PAGE, tryptic digest, LC-MS/MS; three biological replicates; proteins found in mock, ABL-alone and FYN-alone controls removed. The source holds these as a separate data set.

Assay [5] deals with T1, DCBLD1-MYC-FLAG (human Discoidin, CUB, and LCCL domain-containing protein 1) (human). The assay is described as above. This is another data set of the same source.

Where two headings read alike, the source gives them in different places. No constants are given. Whether binding was seen depends on the method and setting. Binding seen in cells or lysates may run through a third protein. A yes stands for co-enrichment or nearness to the bait. Other partners may have been found. Sequences can lack the tags named with a protein.

As to “14-3-3ε (endogenous) (from UniProt P62258 1-255)”, the binding entry in assay [1] and in assay [2] was “binds” each time.
Regarding zebrafish CRK, in assay [3], the binding entry is “binds”.
For the molecule “calnexin (CANX) (from UniProt P27824 21-592)”, in assay [2], the binding result was “binds”.
Regarding “C-terminal ubiquitin hydrolase FAF-Y (USP9Y) (from UniProt O00507 1-2555) (enzyme)”, the binding result in assay [1] was “binds”.
Turning to “CT10 regulator of kinase (CRK) (from UniProt P46108 1-304)”, the binding entry in assay [1] and in assay [2] was “binds” each time.
Turning to “FYN (from UniProt P06241 1-537) (enzyme)”, the binding entry in assay [2] was “binds”.
Same read-out and setting: to “14-3-3β (endogenous) (from UniProt P31946 1-246)” belongs “binds”.
On the same count and under the same terms, for “14-3-3ζ (endogenous) (from UniProt P63104 1-245)” the value was “binds”.
With “CRK-like (CRKL) (from UniProt P46109 1-303)”, the binding entry in assay [1] and in assay [2] was “binds” each time.
zebrafish CaMKII γ subunit (enzyme): the binding result in assay [3] is “binds”.
As for zebrafish CaMKIIδ (enzyme), the binding result in assay [3] is “binds”.
In the case of “Ca2+/calmodulin-dependent protein kinase type-II δ (CaMK-IIδ) (from UniProt Q13557 1-499) (enzyme)”, the binding result in assay [1] and in assay [2] was “binds” in each case.
Consider “UDP-glucose:glycoprotein glucosyltransferase 1 (UGGT1) (from UniProt Q9NYU2 43-1555) (enzyme)”, for which, in assay [2], the binding entry is “binds”.
Turning to “Ca2+/calmodulin-dependent protein kinase type-II β (CaMK-IIβ) (from UniProt Q13554 1-666) (enzyme)”, the binding entry in assay [1] and in assay [2] was “binds” throughout.
For the molecule zebrafish CRKL, the binding result in assay [3] was “binds”.

B1: neutral α-glucosidase (GANAB) (enzyme, UniProt Q14697 29-944)
chain: ITLAVDRSNFKTCEESSFCKRQRSIRPGLSPYRALLDSLQLGPDSLTVHLIHEVTKVLLVLELQGLQKNMTRFRIDELEPRRPRYRVPDVLVADPPIARLSVSGRDENSVELTMAEGPYKIILTARPFRLDLLEDRSLLLSVNARGLLEFEHQRAPRVSQGSKDPAEGDGAQPEETPRDGDKPEETQGKAEKDEPGAWEETFKTHSDSKPYGPMSVGLDFSLPGMEHVYGIPEHADNLRLKVTEGGEPYRLYNLDVFQYELYNPMALYGSVPVLLAHNPHRDLGIFWLNAAETWVDISSNTAGKTLFGKMMDYLQGSGETPQTDVRWMSETGIIDVFLLLGPSISDVFRQYASLTGTQALPPLFSLGYHQSRWNYRDEADVLEVDQGFDDHNLPCDVIWLDIEHADGKRYFTWDPSRFPQPRTMLERLASKRRKLVAIVDPHIKVDSGYRVHEELRNLGLYVKTRDGSDYEGWCWPGSAGYPDFTNPTMRAWWANMFSYDNYEGSAPNLFVWNDMNEPSVFNGPEVTMLKDAQHYGGWEHRDVHNIYGLYVHMATADGLRQRSGGMERPFVLARAFFAGSQRFGAVWTGDNTAEWDHLKISIPMCLSLGLVGLSFCGADVGGFFKNPEPELLVRWYQMGAYQPFFRAHAHLDTGRREPWLLPSQHNDIIRDALGQRYSLLPFWYTLLYQAHREGIPVMRPLWVQYPQDVTTFNIDDQYLLGDALLVHPVSDSGAHGVQVYLPGQGEVWYDIQSYQKHHGPQTLYLPVTLSSIPVFQRGGTIVPRWMRVRRSSECMKDDPITLFVALSPQGTAQGELFLDDGHTFNYQTRQEFLLRRFSFSGNTLVSSSADPEGHFETPIWIERVVIIGAGKPAAVVLQTKGSPESRLSFQHDPETSVLVLRKPGINVASDWSIHLR
Take B1: in assay [4], the binding result is listed as “binds”.

B2: E3-independent E2 ubiquitin-conjugating enzyme (UBE2O) (enzyme, UniProt Q9C0C9 1-1292)
chain: MADPAAPTPAAPAPAQAPAPAPEAVPAPAAAPVPAPAPASDSASGPSSDSGPEAGSQRLLFSHDLVSGRYRGSVHFGLVRLIHGEDSDSEGEEEGRGSSGCSEAGGAGHEEGRASPLRRGYVRVQWYPEGVKQHVKETKLKLEDRSVVPRDVVRHMRSTDSQCGTVIDVNIDCAVKLIGTNCIIYPVNSKDLQHIWPFMYGDYIAYDCWLGKVYDLKNQIILKLSNGARCSMNTEDGAKLYDVCPHVSDSGLFFDDSYGFYPGQVLIGPAKIFSSVQWLSGVKPVLSTKSKFRVVVEEVQVVELKVTWITKSFCPGGTDSVSPPPSVITQENLGRVKRLGCFDHAQRQLGERCLYVFPAKVEPAKIAWECPEKNCAQGEGSMAKKVKRLLKKQVVRIMSCSPDTQCSRDHSMEDPDKKGESKTKSEAESASPEETPDGSASPVEMQDEGAEEPHEAGEQLPPFLLKEGRDDRLHSAEQDADDEAADDTDDTSSVTSSASSTTSSQSGSGTSRKKSIPLSIKNLKRKHKRKKNKITRDFKPGDRVAVEVVTTMTSADVMWQDGSVECNIRSNDLFPVHHLDNNEFCPGDFVVDKRVQSCPDPAVYGVVQSGDHIGRTCMVKWFKLRPSGDDVELIGEEEDVSVYDIADHPDFRFRTTDIVIRIGNTEDGAPHKEDEPSVGQVARVDVSSKVEVVWADNSKTIILPQHLYNIESEIEESDYDSVEGSTSGASSDEWEDDSDSWETDNGLVEDEHPKIEEPPIPPLEQPVAPEDKGVVISEEAATAAVQGAVAMAAPMAGLMEKAGKDGPPKSFRELKEAIKILESLKNMTVEQLLTGSPTSPTVEPEKPTREKKFLDDIKKLQENLKKTLDNVAIVEEEKMEAVPDVERKEDKPEGQSPVKAEWPSETPVLCQQCGGKPGVTFTSAKGEVFSVLEFAPSNHSFKKIEFQPPEAKKFFSTVRKEMALLATSLPEGIMVKTFEDRMDLFSALIKGPTRTPYEDGLYLFDIQLPNIYPAVPPHFCYLSQCSGRLNPNLYDNGKVCVSLLGTWIGKGTERWTSKSSLLQVLISIQGLILVNEPYYNEAGFDSDRGLQEGYENSRCYNEMALIRVVQSMTQLVRRPPEVFEQEIRQHFSTGGWRLVNRIESWLETHALLEKAQALPNGVPKASSSPEPPAVAELSDSGQQEPEDGGPAPGEASQGSDSEGGAQGLASASRDHTDQTSETAPDASVPPSVKPKKRRKSYRSFLPEKSGYPDIGFPLFPLSKGFIKSIRGVLTQFRAALLEAGMPECTEDK
Turning to B2, the binding result in assay [5] was “binds”.
